“And” between values parts separate entries of the source, which are not always exact repeats. Equal values may be shown once. About 10,000 (2.8%) of roughly 360,000 compounds were called active. Inconclusive results, whose numbers are uncertain, are shown with a selection of clear calls. The call rests on the fitted dose curve; in most records, active means well fitted inhibition curve with a large enough effect; inconclusive means small, poorly fitted or top-dose-only effect; inactive means flat fitted curve, though single readings scatter. Potencies beside an inconclusive call are fits to weak or partial responses and may not hold up.
molecular target: Serine/threonine-protein kinase PLK1 (Homo sapiens) (UniProt P53350); test: qHTS for Inhibitors of PLK1-PDB (polo-like kinase 1 - polo-box domain): Primary Screen; settings: Plk1 PBD binding of FITC phosphopeptide, fluorescence polarization; further: nearly all actives have a fitted effect of over 65% in size; on max response, negative = inhibition: series mostly up to about 57 µM
On the % scale 0 is the no-effect control and ±100 the full control effect; potency means the concentration at half of the fitted maximal effect.

Sequences of proteins named here, by UniProt entry; tags and fusion partners are left off.
UniProt P53350, whole entry, looked up: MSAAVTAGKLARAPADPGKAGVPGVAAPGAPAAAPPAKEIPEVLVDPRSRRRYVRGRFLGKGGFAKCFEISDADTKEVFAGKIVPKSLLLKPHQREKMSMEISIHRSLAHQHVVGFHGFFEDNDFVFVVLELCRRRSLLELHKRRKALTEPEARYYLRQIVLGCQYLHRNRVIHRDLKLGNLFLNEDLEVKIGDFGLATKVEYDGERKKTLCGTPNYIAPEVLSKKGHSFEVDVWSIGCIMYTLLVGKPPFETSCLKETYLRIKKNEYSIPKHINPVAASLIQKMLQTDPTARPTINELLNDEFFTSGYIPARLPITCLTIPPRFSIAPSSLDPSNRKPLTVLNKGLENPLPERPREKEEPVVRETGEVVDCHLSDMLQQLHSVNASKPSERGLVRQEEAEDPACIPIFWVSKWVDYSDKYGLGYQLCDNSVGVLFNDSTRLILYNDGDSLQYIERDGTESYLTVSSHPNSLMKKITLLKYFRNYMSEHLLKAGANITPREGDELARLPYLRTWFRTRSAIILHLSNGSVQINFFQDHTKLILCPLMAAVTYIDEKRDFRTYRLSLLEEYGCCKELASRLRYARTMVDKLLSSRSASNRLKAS

| SMILES | Potency | max response, negative = inhibition |
| --- | --- | --- |
| Cc1ccc(CNC(=O)CSc2c3c(nc4cc(Cl)ccc24)CCCC3)o1 | inconclusive: 26.7 µM [inhibitor, partial curve] |  |
| O=C(C1Cc2ccccc2CN1C(=O)c1ccco1)N1CCN(c2ccccc2)CC1 (stereo unspecified) |  | inactive: -14.9% |
| CCn1c(CC(=O)Nc2ccccc2)nnc1SCC(=O)N1CCOCC1 |  | inactive: -0.409% |
| O=c1[nH]c(=S)[nH]c2c1C(c1ccc(F)cc1)OC(C1CCCCC1)C2 (stereo unspecified) | inconclusive: 26.7 µM [inhibitor, partial curve] |  |
| O=C(CSc1ccccc1)NCCc1ccccc1 |  | inactive: -6.71% |
| CCC1Sc2ccc(S(=O)(=O)CCC(=O)Nc3ccc(C(=O)OC)cc3)cc2NC1=O (stereo unspecified) | active: 15 µM |  |
| Cc1cc(-c2nn(-c3ccccc3F)cc2CN2CCC(C(N)=O)CC2)c(C)s1 |  | inactive: 6.47% |
| CCn1c(SCC(=O)NCc2cccs2)nnc1-c1ccco1 | inconclusive: 21.2 µM [inhibitor, partial curve] |  |
| O=C(NCCc1ccccc1)C1CCN(S(=O)(=O)N2CCCCC2)CC1 | inconclusive: 29.9 µM [inhibitor, single point] |  |
| COc1cc(/C=C2\SC(=Nc3ccc(O)cc3)NC2=O)cc(OC)c1OC |  | inactive: -8.14% |
| O=C(Oc1ccc(C(=S)N2CCOCC2)cc1)c1ccc(F)cc1 | active: 21.2 µM |  |
| C=C1c2c(Cl)ccc(O)c2C(O)=C2C(=O)[C@]3(O)C(O)=C(C(N)=O)C(=O)[C@@H](N(C)C)[C@@H]3[C@@H](O)C12 (stereo partly specified) | active: 23.8 µM |  |
| O=C(Nc1cccc(-c2cn3ccccc3n2)c1)c1cnccn1 |  | inconclusive: -31.2% [inhibitor] |
| O=C(/C(=C/c1cccnc1)n1ccnc1)c1ccc(Cl)cc1Cl | inconclusive: 23.8 µM [inhibitor, single point] |  |
| CN1C(=O)c2ccccc2C(C(=O)O)C1c1cn(C)c2ccccc12 (stereo unspecified) | inconclusive: 37.7 µM [inhibitor, single point] |  |
| COC(=O)c1ccc(CSc2nc3scc(-c4cccs4)c3c(=O)[nH]2)o1 | inconclusive: 21.2 µM [inhibitor, partial curve] |  |
| O=C1NC(=S)S/C1=C\c1cc(Cl)cc(Cl)c1O | inconclusive: 10.6 µM [inhibitor, partial curve] |  |
| CC(=O)Nc1ccc(SCC(=O)N(CCC#N)c2ccc(C)cc2)cc1 | inconclusive: 26.7 µM [inhibitor, partial curve] |  |
| Cc1ccc(CNC(=S)Nc2ccc3c(c2)c(=O)n(C)n3Cc2cccc(C(F)(F)F)c2)cc1 | inconclusive: 26.7 µM [inhibitor, single point] |  |
| Cc1ccc(OC(C)C(=O)N2CCN(c3ccccn3)CC2)cc1 (stereo unspecified) | active: 26.7 µM |  |
| CCCCCCCC(=O)Nc1cc(C(=O)NCCC)ccc1N1CCC2(CC1)CC(c1ccccc1)=NO2 |  | inactive: -3.56% |
| COc1cccc(CNCCO)c1OCc1ccc(Cl)cc1 |  | inactive: -3.75% |

2 compounds picked at random from the list so far:

| SMILES | Potency | max response, negative = inhibition |
| --- | --- | --- |
| O=C(/C(=C/c1cccnc1)n1ccnc1)c1ccc(Cl)cc1Cl | inconclusive: 23.8 µM [inhibitor, single point] |  |
| CCC1Sc2ccc(S(=O)(=O)CCC(=O)Nc3ccc(C(=O)OC)cc3)cc2NC1=O (stereo unspecified) | active: 15 µM |  |

Next records.

| SMILES | Potency | max response, negative = inhibition |
| --- | --- | --- |
| CCS(=O)(=O)C1=NN2C(=N)/C(=C\c3ccc(OC(=O)c4ccco4)c(OC)c3)C(=O)N=C2S1 | inconclusive: 21.2 µM [inhibitor, partial curve] |  |
| COc1cc(/C=N/NC(=O)c2cccc(NC(=O)c3ccccc3)c2)ccc1O |  | inactive: 2.36% |
| CC(C)Cc1nnc(NC(=O)CCc2ccccc2)s1 | inconclusive: 26.7 µM [inhibitor, partial curve] |  |
| CSc1ccccc1C(=O)C1CCCN(C(=O)c2ccc(N3CCOCC3)cc2)C1 (stereo unspecified) | inconclusive: 26.7 µM [inhibitor, single point] |  |
| CCOC(=O)c1[nH]c(=O)[nH]c1COC(=O)c1cc2ccccc2o1 |  | inconclusive: -31.6% [inhibitor] |
| CCOc1cc(C2NC(=S)NC(C)=C2C(=O)Nc2ccccc2)ccc1O (stereo unspecified) | inconclusive: 33.6 µM [inhibitor, single point] |  |
| O=C(Nc1cccc(-c2csc(Nc3ccc(Cl)cc3)n2)c1)c1ccccc1 | inconclusive: 75.2 µM [inhibitor, partial curve] and inconclusive: 42.3 µM [inhibitor, partial curve] |  |
| CCOC(=O)/C=C(/C)N1N=C(c2ccc(OC)cc2)CC1c1cccc([N+](=O)[O-])c1 (stereo unspecified) | inconclusive: 29.9 µM [inhibitor, partial curve] |  |
| O=C(O)c1cc(S(=O)(=O)Nc2cccc3ccccc23)c(Cl)cc1Cl | inconclusive: 29.9 µM [inhibitor, single point] |  |
| COc1cccc2[nH]c(C(=O)NC(C)c3ccccc3)cc12 (stereo unspecified) |  | inactive: -9.72% |
| COc1ccc2cc(S(=O)(=O)N3CCCCCC3)ccc2c1 | inconclusive: 21.2 µM [inhibitor, partial curve] |  |
| Cc1cccc(C)c1NC(=O)C(Cl)C(=O)c1ccccc1 (stereo unspecified) | inconclusive: 2.67 µM [inhibitor, partial curve] |  |
| Cc1nc(Nc2cc(F)ccc2C)c2nnn(Cc3ccccc3)c2n1 | active: 23.8 µM |  |
| CCOc1ccc(OCCn2c(=S)[nH]c3c(N)ncnc32)cc1 | inconclusive: 23.8 µM [inhibitor, single point] |  |
| Cc1[nH]nc2c1C(c1cc(Br)cs1)C(C#N)=C(N)O2 (stereo unspecified) | inconclusive: 23.8 µM [inhibitor, partial curve] |  |
| COc1ccc(/C=C2\C(=O)OCc3cc(OC)c(OC)cc32)cc1OC |  | inactive: -12.1% |
| O=C(COC(=O)c1ccc(NS(=O)(=O)c2cccs2)cc1)NCc1ccco1 | inconclusive: 26.7 µM [inhibitor, partial curve] |  |
| Cc1cc(=O)[nH]c(SCC(=O)Nc2nc(-c3ccccc3)cs2)n1 | inconclusive: 29.9 µM [inhibitor, single point] |  |
| COc1ccc(NC(=O)CSc2ccccc2)cc1S(=O)(=O)N1CCCCC1 | inconclusive: 29.9 µM [inhibitor, partial curve, poor fit] |  |
| Cc1ccc(NC(=O)CN(C)C(=O)c2cc(-c3ccco3)nc3ccccc23)cc1 | inconclusive: 29.9 µM [inhibitor, single point] |  |
| COc1ccc(S(=O)(=O)N2CCN(C3CC4CCC3C4)CC2)cc1 (stereo unspecified) | inconclusive: 37.7 µM [inhibitor, single point] |  |
| Cc1cc(NC(=O)CSc2cn(CCNC(=O)c3ccc(Cl)cc3)c3ccccc23)no1 |  | inactive: -0.735% |

In the list so far, 2 have a COOH group.

| SMILES | Potency | max response, negative = inhibition |
| --- | --- | --- |
| CN1C(=O)c2ccccc2C(C(=O)O)C1c1cn(C)c2ccccc12 (stereo unspecified) | inconclusive: 37.7 µM [inhibitor, single point] |  |
| O=C(O)c1cc(S(=O)(=O)Nc2cccc3ccccc23)c(Cl)cc1Cl | inconclusive: 29.9 µM [inhibitor, single point] |  |

More records.

| SMILES | Potency | max response, negative = inhibition |
| --- | --- | --- |
| CCC(=O)Nc1sc2c(c1C#N)CCC2 | inconclusive: 37.7 µM [inhibitor, single point] |  |
| O=C(CN1C(=O)S/C(=C\c2ccc(O)c([N+](=O)[O-])c2)C1=O)Nc1ccc(N2CCOCC2)cc1 | inconclusive: 33.6 µM [inhibitor, single point] |  |
| Cc1ccc(C2(C)NC(=O)N(CC(=O)Nc3ccc(S(=O)(=O)Nc4nccs4)cc3)C2=O)cc1 (stereo unspecified) |  | inactive: -18.3% |
| CCOc1ccc2nc(NC(=O)NC3CCCCC3)sc2c1 |  | inactive: -12.4% |
| Nc1c(C(=O)NC2CC2)sc2nc3c(c(-c4ccco4)c12)CC/C3=C/c1ccco1 | inconclusive: 21.2 µM [inhibitor, partial curve] |  |
| Cc1ccc(S(=O)(=O)N(C)C)cc1NC(=O)C(C)OC(=O)C1CCCCC1 (stereo unspecified) |  | inactive: 4% |
| O=C(CSc1cccc[n+]1[O-])C12CC3CC(CC(C3)C1)C2 | inconclusive: 26.7 µM [inhibitor, partial curve] |  |
| COc1ccc(C(=O)NC(=S)NNC(=O)CNC(=O)C2CCCCC2)cc1 | inconclusive: 23.8 µM [inhibitor, partial curve] |  |
| CC(=O)c1ccc(NC(=O)CSc2nc3[nH]c(=O)cc(O)c3s2)cc1 | inconclusive: 29.9 µM [inhibitor, single point] |  |
| COc1ccc(NC(=O)CCC(=O)OCc2ccc([N+](=O)[O-])cc2)cc1 | inconclusive: 42.3 µM [inhibitor, partial curve] |  |
| CCCCC(=O)NNC(=S)NC(=O)c1cccc([N+](=O)[O-])c1 | inconclusive: 29.9 µM [inhibitor, partial curve] |  |
| Cc1c(Cc2ccccc2)c(=O)oc2cc(OCC(=O)NC(Cc3ccc(Cl)cc3)C(=O)O)ccc12 (stereo unspecified) |  | inconclusive: -30.3% [inhibitor] |
| O=C(Nc1sc(-c2ccccc2)cc1C(=O)O)c1ccccc1 | inconclusive: 37.7 µM [inhibitor, single point] |  |
| COc1ccc(-c2cc(NC=O)c3ncc(-c4cccc(C(=O)N(C)C)c4)n3c2)cn1 |  | inconclusive: -31.7% [inhibitor] |
| O=S(=O)(Nc1nc2ccccc2nc1Nc1ccc2c(c1)OCO2)c1ccccc1 | inconclusive: 23.8 µM [inhibitor, single point] |  |
| Cc1ccc(/C=N/n2c(C3CCCCC3)n[nH]c2=S)cc1 | inconclusive: 23.8 µM [inhibitor, partial curve] |  |
| COc1ccc(C(C)=O)cc1COC(=O)c1cc(=O)c2ccccc2o1 | inconclusive: 29.9 µM [inhibitor, partial curve] |  |
| COc1ccc(NC(=O)CSc2nnc(-c3cccnc3)n2C)cc1 | inconclusive: 8.44 µM [inhibitor, single point] |  |
| CN1C(C(=O)Nc2ccc(C(=O)O)cc2)=C(O)c2ccccc2S1(=O)=O |  | inactive: -4.54% |
| C=CCC1NS(=O)(=O)OCC1NC(=O)OCC(Cl)(Cl)Cl (stereo unspecified) |  | inactive: -5.07% |
| CC(=O)N(/N=C1/C(=O)Nc2ccccc21)c1ccccc1 | inconclusive: 26.7 µM [inhibitor, single point] |  |
| Cc1nc(C)c(C(=O)NCc2ccc(Cl)cc2)o1 | inconclusive: 26.7 µM [inhibitor, single point] |  |

Source: PubChem BioAssay AID720504 (National Center for Advancing Translational Sciences (NCATS), 2013)
